The assay concerns the target STAT2 (UniProt P52630). The assay is described as follows: FLAG affinity purification from transfected cell lysate, immunoblot with STAT2 antiserum.

Sequences of proteins named here, by UniProt entry; tags and fusion partners are left off.
UniProt P52630: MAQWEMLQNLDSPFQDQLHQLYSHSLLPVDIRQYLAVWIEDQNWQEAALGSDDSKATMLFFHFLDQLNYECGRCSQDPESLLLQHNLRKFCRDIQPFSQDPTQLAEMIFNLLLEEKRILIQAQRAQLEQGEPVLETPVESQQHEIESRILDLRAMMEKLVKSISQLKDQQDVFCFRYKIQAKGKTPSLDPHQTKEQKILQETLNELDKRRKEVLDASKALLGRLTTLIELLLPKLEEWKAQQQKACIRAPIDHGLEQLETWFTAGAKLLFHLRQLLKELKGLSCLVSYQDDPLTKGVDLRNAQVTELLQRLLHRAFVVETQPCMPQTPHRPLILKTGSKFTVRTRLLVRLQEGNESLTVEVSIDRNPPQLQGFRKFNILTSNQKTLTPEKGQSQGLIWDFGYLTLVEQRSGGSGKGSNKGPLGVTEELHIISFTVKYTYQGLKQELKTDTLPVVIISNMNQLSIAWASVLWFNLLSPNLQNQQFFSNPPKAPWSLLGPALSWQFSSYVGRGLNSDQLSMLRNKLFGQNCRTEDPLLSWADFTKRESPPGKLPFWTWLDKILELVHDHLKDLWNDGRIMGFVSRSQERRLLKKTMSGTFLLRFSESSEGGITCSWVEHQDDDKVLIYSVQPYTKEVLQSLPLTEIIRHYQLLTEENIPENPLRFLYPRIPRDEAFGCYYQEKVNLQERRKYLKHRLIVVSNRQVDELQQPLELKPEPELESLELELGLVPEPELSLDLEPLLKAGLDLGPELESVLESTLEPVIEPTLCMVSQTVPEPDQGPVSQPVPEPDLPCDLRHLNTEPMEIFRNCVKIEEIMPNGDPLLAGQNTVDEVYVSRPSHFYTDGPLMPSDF
UniProt P11207: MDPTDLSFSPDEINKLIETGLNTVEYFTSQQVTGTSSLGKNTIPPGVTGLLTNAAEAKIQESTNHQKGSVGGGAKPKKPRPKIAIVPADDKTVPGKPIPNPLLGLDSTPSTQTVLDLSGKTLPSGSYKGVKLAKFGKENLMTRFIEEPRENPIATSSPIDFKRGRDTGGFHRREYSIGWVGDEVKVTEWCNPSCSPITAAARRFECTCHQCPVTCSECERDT

Results are given in words; binding and its absence hold for the method and conditions named. Some binding calls cover weakened binding; strength is not graded here.

In the case of “FLAG-tagged SV5 V protein (from UniProt P11207 1-222)”, the binding result is “binds”.

The values are drawn from patent US20060210536A1 (published 2006).
